# The list shows a part of the results.
# B1: pTFF2 (Sus scrofa), P01359 (protein)
# chain: KPAACRCSRQDPKNRVNCGFPGITSDQCFTSGCCFDSQVPGVPWCFKPLPAQESEECVMEVSARKNCGYPGISPEDCAARNCCFSDTIPEVPWCFFPMSVEACHY
# Legend:
# Assay in all cases: glycan array binding signal (z-score within array); higher = stronger binding
# Conditions in all cases: glycan notation: IUPAC condensed, linker removed
# [1] = biological target: Neu5Ac(a2-8)Neu5Ac
# How it was run: (§1)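 Glycan array binding is given as a within-array Z-score, which can be read as non-binding when negative. The arrays, 3228 of them, came from the Consortium for Functional Glycomics database and were retained only where the protein sequence was available. Z-scores were averaged across arrays of the same protein sequence at different concentrations or buffers and across linkers.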
# [2] = biological target: Neu5Ac(a2-8)Neu5Ac(a2-3)Gal(b1-3)GalNAc(b1-4)[Neu5Ac(a2-3)]Gal(b1-4)Glc
# How it was run: as §1
# [3] = biological target: Neu5Ac(a2-8)Neu5Ac(a2-3)Gal(b1-3)GalNAc(b1-4)[Neu5Ac(a2-8)Neu5Ac(a2-3)]Gal(b1-4)Glc
# How it was run: as §1
# [4] = biological target: Neu5Ac(a2-8)Neu5Ac(a2-3)Gal(b1-4)Glc
# How it was run: as §1
# [5] = biological target: Neu5Ac(a2-8)Neu5Ac(a2-3)Gal(b1-4)GlcNAc
# How it was run: as §1
# [6] = biological target: Neu5Ac(a2-8)Neu5Ac(a2-3)[Gal(b1-3)GalNAc(b1-4)]Gal(b1-4)Glc
# How it was run: as §1
# [7] = biological target: Neu5Ac(a2-8)Neu5Ac(a2-3)[GalNAc(b1-4)]Gal(b1-4)Glc
# How it was run: as §1
# [8] = biological target: Neu5Ac(a2-8)Neu5Ac(a2-8)Neu5Ac
# How it was run: as §1
# [9] = biological target: Neu5Ac(a2-8)Neu5Ac(a2-8)Neu5Ac(a2-3)Gal(b1-4)Glc
# How it was run: as §1
# [10] = biological target: Neu5Ac(a2-8)Neu5Ac(a2-8)Neu5Ac(a2-3)[Gal(b1-3)GalNAc(b1-4)]Gal(b1-4)Glc
# How it was run: as §1
# [11] = biological target: Neu5Ac(a2-8)Neu5Ac(a2-8)Neu5Ac(a2-3)[GalNAc(b1-4)]Gal(b1-4)Glc
# How it was run: as §1
# [12] = biological target: Neu5Ac(a2-8)Neu5Ac(a2-8)Neu5Ac(a2-8)Neu5Ac(a2-3)[GalNAc(b1-4)]Gal(b1-4)Glc
# How it was run: as §1
# [13] = biological target: Neu5Ac(a2-8)Neu5Gc(a2-3)Gal(b1-4)GlcNAc
# How it was run: as §1
# [14] = biological target: Neu5Ac(b2-6)Gal(b1-4)GlcNAc
# How it was run: as §1
# [15] = biological target: Neu5Ac(b2-6)GalNAc
# How it was run: as §1
# [16] = biological target: Neu5Ac9Ac(a2-3)Gal(b1-3)GlcNAc
# How it was run: as §1
# [17] = biological target: Neu5Ac9Ac(a2-3)Gal(b1-4)GlcNAc
# How it was run: as §1
# [18] = biological target: Neu5Ac9Ac(a2-6)Gal(b1-4)GlcNAc
# How it was run: as §1
# [19] = biological target: Neu5Gc(a2-3)Gal(b1-3)GlcNAc
# How it was run: as §1
# [20] = biological target: Neu5Gc(a2-3)Gal(b1-3)[Fuc(a1-4)]GlcNAc
# How it was run: as §1
# [21] = biological target: Neu5Gc(a2-3)Gal(b1-4)Glc
# How it was run: as §1
# [22] = biological target: Neu5Gc(a2-3)Gal(b1-4)GlcNAc
# How it was run: as §1
# [23] = biological target: Neu5Gc(a2-3)Gal(b1-4)GlcNAc(b1-3)Gal(b1-4)GlcNAc(b1-2)Man(a1-3)[Neu5Gc(a2-3)Gal(b1-4)GlcNAc(b1-3)Gal(b1-4)GlcNAc(b1-2)Man(a1-6)]Man(b1-4)GlcNAc(b1-4)GlcNAc
# How it was run: as §1
# [24] = biological target: Neu5Gc(a2-3)Gal(b1-4)[Fuc(a1-3)]GlcNAc
# How it was run: as §1
# [25] = biological target: Neu5Gc(a2-6)Gal(b1-4)GlcNAc
# How it was run: as §1
# [26] = biological target: Neu5Gc(a2-6)GalNAc
# How it was run: as §1
# [27] = biological target: Neu5Gc(a2-8)Neu5Ac(a2-3)Gal(b1-4)GlcNAc
# How it was run: as §1
# [28] = biological target: Neu5Gc(a2-8)Neu5Gc(a2-3)Gal(b1-4)GlcNAc
# How it was run: as §1
# [29] = biological target: Neu5Gc(a2-8)Neu5Gc(a2-3)Gal(b1-4)GlcNAc(b1-3)Gal(b1-4)GlcNAc
# How it was run: as §1
# [30] = biological target: Neu5Gc(a2-8)Neu5Gc(a2-6)Gal(b1-4)GlcNAc
# How it was run: as §1
# [31] = biological target: Neu5Gc(b2-6)Gal(b1-4)GlcNAc
# How it was run: as §1
binder,measurement,setting,value
B1,glycan array binding signal (z-score),[1],-0.697
same,glycan array binding signal (z-score),[2],0.514
same,glycan array binding signal (z-score),[3],0.439
same,glycan array binding signal (z-score),[4],0.005
same,glycan array binding signal (z-score),[5],-0.515
same,glycan array binding signal (z-score),[6],0.016
same,glycan array binding signal (z-score),[7],0.295
same,glycan array binding signal (z-score),[8],0.284
same,glycan array binding signal (z-score),[9],-0.275
same,glycan array binding signal (z-score),[10],0.311
same,glycan array binding signal (z-score),[11],1
same,glycan array binding signal (z-score),[12],0.692
same,glycan array binding signal (z-score),[13],-0.765
same,glycan array binding signal (z-score),[14],-0.982
same,glycan array binding signal (z-score),[15],0.27
same,glycan array binding signal (z-score),[16],-1.34
same,glycan array binding signal (z-score),[17],-0.575
same,glycan array binding signal (z-score),[18],-0.421
same,glycan array binding signal (z-score),[19],-0.752
same,glycan array binding signal (z-score),[20],0.024
same,glycan array binding signal (z-score),[21],-1.17
same,glycan array binding signal (z-score),[22],0.017
same,glycan array binding signal (z-score),[23],0.62
same,glycan array binding signal (z-score),[24],0.658
same,glycan array binding signal (z-score),[25],0.067
same,glycan array binding signal (z-score),[26],0.043
same,glycan array binding signal (z-score),[27],-0.7
same,glycan array binding signal (z-score),[28],-0.206
same,glycan array binding signal (z-score),[29],1.25
same,glycan array binding signal (z-score),[30],-0.188
same,glycan array binding signal (z-score),[31],-0.591

# Two entries from above, with bars between the fields.
binder | measurement | setting | value
B1 | glycan array binding signal (z-score) | [23] | 0.62
same | glycan array binding signal (z-score) | [31] | -0.591
